Data as given in PubChem BioAssay AID1259308 (NCATS, 2017)

- Test: 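Genes whose loss raises luciferase production in HEK293 cells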 (primary screen)
- Cells: human HEK293 embryonic kidney cells stably expressing firefly luciferase (HEK-CMV-Luc2-Hygro)
- Reagents: single siRNA against human genes, 0.8 pmol siRNA per well
- Time to read-out: 72 h
- Measured: 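Reporter luminescence and viable-cell signal on separate replicate plates, given as percent of non-targeting control and median/MAD z-scores, plus per-cell luciferase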
- Direction: total luciferase, z-score and total luciferase, % of control: higher = more reporter protein produced; luciferase per cell, z-score: higher = more reporter output per viable cell; viable cells, % of control: higher = more viable cells
- Active means: 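An siRNA counts as active if its total luciferase robust z-score exceeds 3; genes with two or more such siRNAs out of three were retested with fresh siRNAs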
- Calls: active = raised luciferase; inactive = no rise
Here is one part, drawn at random, of about 59,000 deposited reagents. About 1,510 of them (2.6%) were called active. 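Calls use total luciferase alone and ignore viability, so some active siRNAs may act by altering cell number.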 The numbers tell different reagents against one gene apart.

target | reagent | total luciferase, z-score | total luciferase, % of control | luciferase per cell, z-score | viable cells, % of control | activity call
ZNF799 (GeneID 90576) | 1 | -0.311 | 75.7 | 0.407 | 76 | inactive
ZNF799 (GeneID 90576) | 2 | -0.827 | 65.4 | -0.3 | 79.1 | inactive
ZNF799 (GeneID 90576) | 3 | -0.832 | 65.3 | 0.246 | 68.4 | inactive
LIMA1 (GeneID 51474) | 1 | 1.17 | 105 | 0.59 | 101 | inactive
LIMA1 (GeneID 51474) | 2 | -1.26 | 56.8 | -0.732 | 76.9 | inactive
LIMA1 (GeneID 51474) | 3 | 0.354 | 88.9 | -0.24 | 106 | inactive
SLC4A1 (GeneID 6521) | 1 | 3.66 | 155 | 2.49 | 89.7 | active
SLC4A1 (GeneID 6521) | 2 | 1.47 | 111 | 3.16 | 54 | inactive
SLC4A1 (GeneID 6521) | 3 | 1.35 | 109 | 1.05 | 92.1 | inactive
TNPO2 (GeneID 30000) | 1 | 0.578 | 93.4 | 0.473 | 92.1 | inactive
TNPO2 (GeneID 30000) | 2 | -0.277 | 76.4 | -0.326 | 93 | inactive
TNPO2 (GeneID 30000) | 3 | 0.866 | 99.1 | -0.159 | 115 | inactive
REV3L (GeneID 5980) | 1 | 1.07 | 103 | 0.923 | 90.4 | inactive
REV3L (GeneID 5980) | 2 | -0.364 | 74.6 | -0.746 | 102 | inactive
REV3L (GeneID 5980) | 3 | -0.343 | 75.1 | -0.628 | 99 | inactive
HMGCLL1 (GeneID 54511) | 1 | -0.291 | 76.1 | -0.424 | 95.1 | inactive
HMGCLL1 (GeneID 54511) | 2 | 3.89 | 159 | 3.04 | 80.1 | active
HMGCLL1 (GeneID 54511) | 3 | 0.588 | 93.6 | 0.189 | 99.5 | inactive
HK2 (GeneID 3099) | 1 | -0.297 | 76 | 1.88 | 51.8 | inactive
HK2 (GeneID 3099) | 2 | 0.35 | 88.9 | -0.0618 | 101 | inactive
HK2 (GeneID 3099) | 3 | -1.01 | 61.9 | -0.0322 | 69.7 | inactive
USHBP1 (GeneID 83878) | 1 | -0.246 | 77 | 0.0357 | 85.2 | inactive
USHBP1 (GeneID 83878) | 2 | 0.385 | 89.5 | 0.271 | 93.2 | inactive
USHBP1 (GeneID 83878) | 3 | -1.59 | 50.2 | -1.74 | 88.6 | inactive

Not a retest: entries from further up.
target | reagent | total luciferase, z-score | total luciferase, % of control | luciferase per cell, z-score | viable cells, % of control | activity call
TNPO2 (GeneID 30000) | 2 | -0.277 | 76.4 | -0.326 | 93 | inactive
TNPO2 (GeneID 30000) | 3 | 0.866 | 99.1 | -0.159 | 115 | inactive
